Only a part is listed here, and it is no random draw. For some of these results: At the low end of the ranking, values are background and their order means little. The list shows a part of the results. For some of these results: The source does not settle which construct or isoform was used.
What was measured:
Experiment in all cases: DAPPL (digital affinity profiling via proximity ligation, sequencing)
Conditions in all cases: 10 mM Tris-HCl pH 7.5, 50 mM NaCl, 1 mM DTT, 4% glycerol, room temperature, 30 min; GST-TFs on glutathione beads, 16-mer random dsDNA library, 0.1% …; high values mean tight binding; double strand, one strand shown; scale: fold enrichment (6-mer frequency, TF over GST control)
ELF1 = ELF1 (UniProt P32519)
ETV4 = target: T1, ETV4 (UniProt P43268)
T1 sequence: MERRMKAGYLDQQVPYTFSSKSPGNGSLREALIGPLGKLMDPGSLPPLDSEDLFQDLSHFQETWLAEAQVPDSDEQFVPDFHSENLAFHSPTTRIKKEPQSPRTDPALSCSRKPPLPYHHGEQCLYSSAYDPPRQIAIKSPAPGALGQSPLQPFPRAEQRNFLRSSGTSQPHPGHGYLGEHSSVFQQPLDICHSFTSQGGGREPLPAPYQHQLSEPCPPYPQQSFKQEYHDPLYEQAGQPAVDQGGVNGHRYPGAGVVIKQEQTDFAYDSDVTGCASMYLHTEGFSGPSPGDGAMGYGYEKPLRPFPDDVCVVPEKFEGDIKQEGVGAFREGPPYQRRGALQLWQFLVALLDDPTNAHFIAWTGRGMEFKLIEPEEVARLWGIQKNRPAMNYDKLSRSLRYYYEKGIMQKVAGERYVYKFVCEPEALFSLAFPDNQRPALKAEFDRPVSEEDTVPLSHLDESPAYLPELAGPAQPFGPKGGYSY

By UniProt entry, the sequences of proteins in these tests, tags left out. Where a name states a change or a piece, a line headed by the entry shows the natural chain unless it says otherwise.
UniProt P32519: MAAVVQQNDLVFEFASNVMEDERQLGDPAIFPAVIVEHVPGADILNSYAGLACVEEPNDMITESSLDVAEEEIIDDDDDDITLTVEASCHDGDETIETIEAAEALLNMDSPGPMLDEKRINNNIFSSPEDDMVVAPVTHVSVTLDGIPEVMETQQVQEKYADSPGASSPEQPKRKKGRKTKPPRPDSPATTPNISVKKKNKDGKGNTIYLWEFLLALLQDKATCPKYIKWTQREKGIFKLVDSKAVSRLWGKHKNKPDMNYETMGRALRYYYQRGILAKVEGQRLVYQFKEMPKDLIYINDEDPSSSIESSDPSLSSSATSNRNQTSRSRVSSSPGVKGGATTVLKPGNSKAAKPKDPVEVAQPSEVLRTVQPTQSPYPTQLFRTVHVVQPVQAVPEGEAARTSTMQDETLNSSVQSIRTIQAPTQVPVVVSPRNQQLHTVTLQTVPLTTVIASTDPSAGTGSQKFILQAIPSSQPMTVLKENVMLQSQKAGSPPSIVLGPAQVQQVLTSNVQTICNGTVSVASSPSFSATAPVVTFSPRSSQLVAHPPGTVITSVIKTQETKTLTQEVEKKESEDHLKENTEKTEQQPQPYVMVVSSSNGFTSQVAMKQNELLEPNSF

ERF = target: T2, ERF (UniProt P50548)
T2 sequence: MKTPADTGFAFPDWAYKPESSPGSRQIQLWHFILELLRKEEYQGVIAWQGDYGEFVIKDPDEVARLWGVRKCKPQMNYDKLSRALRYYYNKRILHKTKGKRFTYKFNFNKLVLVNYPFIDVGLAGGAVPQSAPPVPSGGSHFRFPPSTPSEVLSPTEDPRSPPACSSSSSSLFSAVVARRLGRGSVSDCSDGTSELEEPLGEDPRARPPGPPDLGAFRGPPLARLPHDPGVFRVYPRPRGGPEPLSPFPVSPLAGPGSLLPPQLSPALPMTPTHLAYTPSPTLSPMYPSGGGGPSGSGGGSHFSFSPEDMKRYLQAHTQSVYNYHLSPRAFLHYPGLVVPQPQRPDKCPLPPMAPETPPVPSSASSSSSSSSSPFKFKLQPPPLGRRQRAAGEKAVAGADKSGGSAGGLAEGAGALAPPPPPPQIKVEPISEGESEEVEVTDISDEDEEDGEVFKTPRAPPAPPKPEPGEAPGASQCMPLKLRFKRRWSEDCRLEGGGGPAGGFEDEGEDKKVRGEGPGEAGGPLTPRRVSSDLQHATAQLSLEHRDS

TGTGAT showed a binding signal (ELF1) of 1.01, a binding signal (ETV4) of 1.01 and a binding signal (ERF) of 0.958.
With ACAACC the binding signal (ELF1) was 1.16 and the binding signal (ETV4) was 1.24.
With CTTAAC the binding signal (ELF1) was 1.35 and the binding signal (ETV4) was 1.27.
Sequence GGAAAT has a binding signal (ELF1) of 2.39 and a binding signal (ETV4) of 2.67.
TCCGCA showed a binding signal (ELF1) of 2.01 and a binding signal (ETV4) of 2.03.
TGTCTA showed a binding signal (ELF1) of 1.15 and a binding signal (ETV4) of 1.09.
Sequence CACTGC has a binding signal (ELF1) of 1.44, a binding signal (ETV4) of 1.31 and a binding signal (ERF) of 1.38.
With TATGCC the binding signal (ELF1) was 1.2 and the binding signal (ETV4) was 1.2.
AGGCTT was tested, and the binding signal (ELF1) was 0.976 and the binding signal (ETV4) was 1.04.
For TTATAA, the binding signal (ELF1) was 1.14 and the binding signal (ETV4) was 1.18.
CTCCAT gave a binding signal (ELF1) of 1.34, a binding signal (ETV4) of 1.35 and a binding signal (ERF) of 1.37.
In the case of TGACTA, the binding signal (ELF1) is reported as 1.09, the binding signal (ETV4) is reported as 1.2 and the binding signal (ERF) is reported as 1.14.
TTCCGG showed a binding signal (ELF1) of 5.41 and a binding signal (ETV4) of 6.35.
TGGATA was tested, and the binding signal (ELF1) was 0.984, the binding signal (ETV4) was 1.06 and the binding signal (ERF) was 1.
With AATTTG the binding signal (ELF1) was 1.26 and the binding signal (ETV4) was 1.32.
Work on GCCACT yielded a binding signal (ELF1) of 1.23 and a binding signal (ETV4) of 1.24.
CATTTT gave a binding signal (ELF1) of 1.18 and a binding signal (ETV4) of 1.14.
With GGAAGT the binding signal (ELF1) was 2.87 and the binding signal (ETV4) was 3.38.
ATTGGC was tested, and the binding signal (ELF1) was 1.13 and the binding signal (ETV4) was 1.11.
Sequence GATTGC has a binding signal (ELF1) of 0.993, a binding signal (ETV4) of 0.977 and a binding signal (ERF) of 1.02.
For TTCTTG, the binding signal (ELF1) was 1.46 and the binding signal (ETV4) was 1.48.
CAACGA was tested, and the binding signal (ELF1) was 1.1, the binding signal (ETV4) was 1.12 and the binding signal (ERF) was 1.05.
TCTCTT was tested, and the binding signal (ELF1) was 1.47, the binding signal (ETV4) was 1.45 and the binding signal (ERF) was 1.37.
CTGGGC showed a binding signal (ELF1) of 1.24, a binding signal (ETV4) of 1.13 and a binding signal (ERF) of 0.987.
Sequence ACGATT has a binding signal (ELF1) of 1.32 and a binding signal (ETV4) of 1.28.
Work on TAGGGC yielded a binding signal (ELF1) of 1 and a binding signal (ETV4) of 0.988.
TATGCT showed a binding signal (ELF1) of 1.29 and a binding signal (ETV4) of 1.46.
AGTCCT showed a binding signal (ELF1) of 0.989, a binding signal (ETV4) of 1.04 and a binding signal (ERF) of 0.887.
Work on TTTCGC yielded a binding signal (ELF1) of 1.13 and a binding signal (ETV4) of 1.15.
CTTTGA gave a binding signal (ELF1) of 1.26, a binding signal (ETV4) of 1.31 and a binding signal (ERF) of 1.18.
Work on ACGCTA yielded a binding signal (ELF1) of 1.15 and a binding signal (ETV4) of 1.15.
With GTAATT the binding signal (ELF1) was 1.22 and the binding signal (ETV4) was 1.16.
Sequence CCTCGC has a binding signal (ELF1) of 1.37 and a binding signal (ETV4) of 1.45.
GCTCAT showed a binding signal (ELF1) of 1.36, a binding signal (ETV4) of 1.23 and a binding signal (ERF) of 1.31.
With CTCACC the binding signal (ELF1) was 1.2 and the binding signal (ETV4) was 1.3.
For TGTTGA, the binding signal (ELF1) was 1.16, the binding signal (ETV4) was 1.08 and the binding signal (ERF) was 1.13.
Work on AACGCC yielded a binding signal (ELF1) of 1.09 and a binding signal (ETV4) of 1.16.
TCAACT showed a binding signal (ELF1) of 1.31 and a binding signal (ETV4) of 1.32.
With CCTTGC the binding signal (ELF1) was 1.45 and the binding signal (ETV4) was 1.41.
With CTGCTT the binding signal (ELF1) was 1.65 and the binding signal (ETV4) was 1.67.
In the case of GTTACT, the binding signal (ELF1) is reported as 1.22 and the binding signal (ETV4) is reported as 1.28.
In the case of CCAATA, the binding signal (ELF1) is reported as 1.25 and the binding signal (ETV4) is reported as 1.25.
With TTCTGT the binding signal (ELF1) was 1.27 and the binding signal (ETV4) was 1.32.
GTAAAT showed a binding signal (ELF1) of 1.16 and a binding signal (ETV4) of 1.14.
CACTCC was tested, and the binding signal (ELF1) was 1.34 and the binding signal (ETV4) was 1.28.
For ATATTC, the binding signal (ELF1) was 1.28 and the binding signal (ETV4) was 1.19.
Sequence TGATTA has a binding signal (ELF1) of 1.09 and a binding signal (ETV4) of 1.11.
Sequence CCTTCA has a binding signal (ELF1) of 1.51 and a binding signal (ETV4) of 1.5.
TTCATT was tested, and the binding signal (ELF1) was 1.24 and the binding signal (ETV4) was 1.23.
TTCTGA showed a binding signal (ELF1) of 1.27 and a binding signal (ETV4) of 1.33.
GATTCA was tested, and the binding signal (ELF1) was 1.17 and the binding signal (ETV4) was 1.19.
